Source: PubChem BioAssay AID540303 (National Center for Advancing Translational Sciences (NCATS), 2011)
In all, about 330,000 compounds went through this assay and about 1,000 (0.3%) were called active. Inconclusive means that the source gave no clear call. Such entries were picked first, then a sample of the others. Calls follow the shape of the dose curve; as a rule, active = well fitted inhibition curve with a large enough effect; inconclusive = small, poorly fitted or top-dose-only effect; inactive = no such curve, though single readings can be large or run the other way; tested in mouse RAW 264.7 cells. A potency beside an inconclusive call is a rough fit, not a confirmed value.

assay: qHTS for Inhibitors of Cell Surface uPA Generation; settings: cell surface uPA generation assay; series mostly up to 38.3 µM; activity change, negative = inhibition: at the top concentration; also: nearly all actives have a fitted effect of over 55% in size
How it was run: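 Murine RAW 264.7 cells are treated for 24 h with compound up to 38.3 uM final. Cell ATP, measured by ATP-Lite, remains high if blocking the uPA cascade prevents LF from reaching the cytoplasm.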
% is scaled to controls: 0 for no effect and ±100 for the full control effect; potency is read from the fitted curve at half-maximal effect.

**Q.** For S=C(NC12CC3CC(CC(C3)C1)C2)N1CCOCC1, which Potency is on record?
**A.** inconclusive: 2.82 µM [inhibitor, single point]

**Q.** With COc1ccc(/C=C2\N=C(c3ccccc3Cl)NC2=O)cc1 as the compound, how does the Potency read?
**A.** inconclusive: 8.91 µM [inhibitor, single point]

**Q.** For O=C(c1ccccc1Cl)N1CCN(Cc2ccc3c(c2)OCO3)CC1, which Potency is on record?
**A.** inconclusive: 3.98 µM [inhibitor, single point]

**Q.** For O=C(N[C@@H](Cc1ccccc1)C(=O)CCl)OCc1ccccc1, which Potency is on record?
**A.** inconclusive: 1.78 µM [inhibitor, full curve, poor fit]

**Q.** With Cc1cc(Cl)nc(-n2nc(C)cc2C)n1 as the compound, how does the “activity change, negative = inhibition” value read?
**A.** inactive: -3.12%

**Q.** Which Potency does the source give for Cc1nnnn1/C(=C\c1ccccc1)C(=O)OCC(=O)Nc1ccc(Cl)cc1F here?
**A.** inconclusive: 11.2 µM [inhibitor, partial curve, poor fit]

**Q.** For C=C1C(=O)O[C@H]2C[C@H]1[C@@H](OC(C)=O)C/C(C)=C/CC/C(C)=C\CC[C@]2(C)O, which Potency is on record?
**A.** inconclusive: 1.58 µM [inhibitor, full curve, poor fit]

**Q.** For CCOC(=O)c1ccc(NC(=O)N2C3CCCC2CC(NC(C)=O)C3)cc1 (stereo unspecified), which Potency is on record?
**A.** inconclusive: 0.282 µM [inhibitor, full curve, poor fit]

**Q.** Which Potency does the source give for N/C(=N\N=C\c1ccc2c(c1)OCO2)c1nonc1N here?
**A.** inconclusive: 6.31 µM [inhibitor, partial curve, poor fit]

**Q.** For O=C(NCc1ccccc1)C1=C[C@H](C2CCCCC2)C[C@H](OCCCCO)O1, which Potency is on record?
**A.** inconclusive: 2.51 µM [inhibitor, partial curve]

**Q.** For O=C1/C(=C/N(C(=O)c2ccco2)c2ccc(Cl)cc2)Sc2ccccc21, which “activity change, negative = inhibition” value is on record?
**A.** inactive: -0.339%

**Q.** For COc1cccc(CNC(=S)Nc2cc(OC)ccc2OC)c1, which “activity change, negative = inhibition” value is on record?
**A.** inactive: -1%

**Q.** For Cc1ccc(C2=NN(C(=O)CSc3nnnn3C)C(c3ccco3)C2)cc1 (stereo unspecified), which Potency is on record?
**A.** inconclusive: 31.6 µM [inhibitor, single point]

**Q.** For COc1ccc(-c2cn3c(C)c(C(=O)NC(C)(C)C)sc3n2)cc1, which Potency is on record?
**A.** inconclusive: 10 µM [inhibitor, single point]

**Q.** For COc1cccc(N2CCN(c3ncnc4c3cnn4-c3ccc(C)cc3C)CC2)c1, which Potency is on record?
**A.** inconclusive: 7.94 µM [inhibitor, single point]

**Q.** With COc1ccc(/C=C/C(=O)c2ccc(O)cc2)cc1 as the compound, how does the Potency read?
**A.** inconclusive: 11.2 µM [inhibitor, partial curve, poor fit]

**Q.** Which Potency does the source give for C[C@@H]1CN([C@@H](C)CO)C(=O)c2cccc(NC(=O)c3nc4ccccc4s3)c2O[C@@H]1CN(C)CC1CC1 here?
**A.** inconclusive: 10 µM [inhibitor, partial curve, poor fit]

**Q.** Which Potency does the source give for COc1ccccc1[C@H]1C(c2cccc(C)c2)=NN(c2ccccc2)[C@@H]1CO here?
**A.** inconclusive: 12.6 µM [inhibitor, single point]

**Q.** With COc1c(C)cccc1C(=O)Nc1ccc(N2CCN(C(=O)c3ccccc3C)CC2)cc1 as the compound, how does the Potency read?
**A.** inconclusive: 12.6 µM [inhibitor, single point]

**Q.** With CC1(C)CC(=O)C2=C(C1)Oc1ncn(Cc3ccco3)c(=N)c1C2c1ccccc1 (stereo unspecified) as the compound, how does the “activity change, negative = inhibition” value read?
**A.** inactive: 13.6%

**Q.** For COc1ccccc1/C=C/C=N/NC(=O)CN1CCN(S(=O)(=O)c2ccc(C)cc2)CC1, which “activity change, negative = inhibition” value is on record?
**A.** inactive: -5.62%

**Q.** With CCOC(=O)c1cnc2ccc(OCC)cc2c1N1CCN(c2ccccc2OC)CC1 as the compound, how does the “activity change, negative = inhibition” value read?
**A.** inactive: 7.99%

**Q.** Which “activity change, negative = inhibition” value does the source give for O=C(Oc1ccc(C(=S)N2CCOCC2)cc1)c1ccc(Br)cc1 here?
**A.** inactive: 2.6%

**Q.** Which Potency does the source give for COC(=O)c1cc(O)c(O)c(O)c1 here?
**A.** inconclusive: 10 µM [inhibitor, single point]

**Q.** For CCc1ccc(-c2cc(C(=O)O)c3ccccc3n2)s1, which Potency is on record?
**A.** inconclusive: 1.58 µM [inhibitor, partial curve, poor fit]

**Q.** With COc1ccccc1NC(=O)c1ccc([N+](=O)[O-])o1 as the compound, how does the Potency read?
**A.** active: 10 µM

**Q.** Which Potency does the source give for CCn1c(SC)nc2cc(S(=O)(=O)N3CCCCC3)ccc21 here?
**A.** inconclusive: 1.78 µM [inhibitor, full curve, poor fit]

**Q.** For COc1ccc(Cl)cc1NC(=O)CN(C)C(=O)c1ccc2c(c1)CC(c1ccccc1)OC2=O (stereo unspecified), which Potency is on record?
**A.** inconclusive: 12.6 µM [inhibitor, single point]

**Q.** For Cn1cnc2nc(Cl)nc(Cl)c21, which Potency is on record?
**A.** inconclusive: 2 µM [inhibitor, partial curve, poor fit]

**Q.** Which Potency does the source give for O=C(c1c(F)cccc1F)N(Cc1cccs1)C1CCCC1 here?
**A.** inconclusive: 7.94 µM [inhibitor, single point]

**Q.** Which “activity change, negative = inhibition” value does the source give for CC(C)C[C@H](NC(=O)N1CCn2c1nc1ccccc12)C(=O)NCc1ccc2c(c1)OCO2 here?
**A.** inactive: -0.555%

**Q.** With O=C(CCN1C(=O)/C(=C\C=C\c2ccccc2)SC1=S)Nc1cccc(C(=O)O)c1 as the compound, how does the Potency read?
**A.** inconclusive: 10 µM [inhibitor, partial curve]

**Q.** For CCn1c(-c2ccccc2)c(C(=O)CCl)c2ccccc21, which Potency is on record?
**A.** inconclusive: 12.6 µM [inhibitor, partial curve, poor fit]

**Q.** For O=C(Nc1ccncc1)C1CCN(S(=O)(=O)c2ccc(Cl)c(C(F)(F)F)c2)CC1, which Potency is on record?
**A.** active: 11.2 µM

**Q.** For COc1ccccc1C(=O)OC(C)CN1CCN(C)CC1 (stereo unspecified), which Potency is on record?
**A.** inconclusive: 28.2 µM [inhibitor, single point]

**Q.** Which Potency does the source give for CC(COc1ccc(/C=C/c2ccccc2)cc1)[N+](C)(C)C (stereo unspecified) here?
**A.** inconclusive: 10 µM [inhibitor, single point]

**Q.** With COc1cc(/C=N/Nc2cccc3cccnc23)cc(OC)c1O as the compound, how does the Potency read?
**A.** inconclusive: 11.2 µM [inhibitor, partial curve, poor fit]

**Q.** Which Potency does the source give for O=C(Cc1cccc(C(F)(F)F)c1)Nc1cc(S(=O)(=O)N2CCOCC2)ccc1N1CCCC1 here?
**A.** inconclusive: 0.0112 µM [inhibitor, full curve, poor fit]

**Q.** For Cc1ccc2c(CC(=O)NCc3cccs3)coc2c1, which Potency is on record?
**A.** inconclusive: 28.2 µM [inhibitor, single point]

**Q.** With COc1ccc(Cl)cc1NC(=O)CN(C)C(=O)c1cc2c(s1)CCCC2 as the compound, how does the Potency read?
**A.** inconclusive: 12.6 µM [inhibitor, single point]

**Q.** For COc1ccc(CCNC(=O)CSc2nc3[nH]ncc3c(=O)n2-c2ccc(C)c(Cl)c2)cc1OC, which Potency is on record?
**A.** inconclusive: 14.1 µM [inhibitor, single point]

**Q.** Which Potency does the source give for O=C(Nc1ccccc1)Nc1ccc(F)cc1F here?
**A.** inconclusive: 28.2 µM [inhibitor, single point]

**Q.** For O=C(O)C1=C[C@@H](c2ccc3c(c2)OCO3)C[C@@H](OCCCCO)O1, which Potency is on record?
**A.** inconclusive: 0.0141 µM [inhibitor, full curve, poor fit]

**Q.** For CCC(C)n1c(/C=C/c2ccccc2)nc2ccccc21 (stereo unspecified), which Potency is on record?
**A.** inconclusive: 10 µM [inhibitor, single point]

**Q.** Which Potency does the source give for O=C(Oc1ccc(=O)n(-c2ccccc2)n1)c1ccc(F)cc1 here?
**A.** inconclusive: 8.91 µM [inhibitor, partial curve, poor fit]

**Q.** Which Potency does the source give for C=CCn1cnc2c(nnn2Cc2ccc(F)cc2)c1=O here?
**A.** inconclusive: 11.2 µM [inhibitor, single point]

**Q.** With COc1ccc(C(=O)Nc2ccccc2NC(=O)c2ccc(OC)cc2)cc1 as the compound, how does the Potency read?
**A.** inconclusive: 3.55 µM [inhibitor, partial curve, poor fit]

**Q.** With COc1cccc(-c2nn(-c3ccccc3)cc2CNC(C)Cn2cncn2)c1 (stereo unspecified) as the compound, how does the “activity change, negative = inhibition” value read?
**A.** inactive: -1.77%

**Q.** With O=c1c2ccccc2nc(COc2ccccc2)n1/N=C/c1ccc(O)cc1O as the compound, how does the Potency read?
**A.** inconclusive: 11.2 µM [inhibitor, partial curve, poor fit]

**Q.** For Cc1ccc(Cn2c(C(C)Nc3nc(-c4ccc(Cl)cc4)cs3)nc3cc(C(=O)NCCCO)ccc32)cc1 (stereo unspecified), which Potency is on record?
**A.** inconclusive: 12.6 µM [inhibitor, single point]

**Q.** For O=C(OCc1ccccc1)c1cc(S(=O)(=O)N2CCCCC2)ccc1N1CCOCC1, which Potency is on record?
**A.** inconclusive: 7.94 µM [inhibitor, partial curve, poor fit]

**Q.** With O=C1C2C3C=CC(CNS(=O)(=O)c4ccccc4[N+](=O)[O-])(O3)C2C(=O)N1c1ccccc1 (stereo unspecified) as the compound, how does the “activity change, negative = inhibition” value read?
**A.** inactive: 3.98%

**Q.** Which Potency does the source give for CC1Cc2ccccc2N1C(=O)c1ccc(Br)o1 (stereo unspecified) here?
**A.** inconclusive: 31.6 µM [inhibitor, partial curve, poor fit]

**Q.** With COc1ccc(CCN(Cc2ccccn2)C(=S)Nc2ccc(C)cc2)cc1OC as the compound, how does the “activity change, negative = inhibition” value read?
**A.** inactive: 8.79%

**Q.** For CCCCNC(=O)CSc1ccc(S(=O)(=O)N2CCOCC2)cn1, which “activity change, negative = inhibition” value is on record?
**A.** inactive: 20.3%

**Q.** Which “activity change, negative = inhibition” value does the source give for CCCN(Cc1ccccc1)C(=S)Nc1ccc(SC(F)F)cc1 here?
**A.** inactive: 7.46%

**Q.** With CC1(C2CC2)NC(=O)N(CC(=O)Nc2ccc(C(F)(F)F)cc2)C1=O (stereo unspecified) as the compound, how does the Potency read?
**A.** inconclusive: 5.62 µM [inhibitor, partial curve, poor fit]

**Q.** Which Potency does the source give for Cc1nc(-c2ccc(NC(=O)c3ccco3)cc2)cs1 here?
**A.** inconclusive: 1.12 µM [inhibitor, single point]

**Q.** For C(#Cc1ccccc1)C[N+]1(CC#Cc2cccc3ccccc23)CCCC1, which Potency is on record?
**A.** inconclusive: 12.6 µM [inhibitor, partial curve, poor fit]

**Q.** With CCCOc1ccc(-c2c(C(=O)N/N=C/c3ccncc3)nnn2-c2nonc2N)cc1 as the compound, how does the “activity change, negative = inhibition” value read?
**A.** inactive: -0.0976%

**Q.** For COc1ccc(CCNC(=O)c2cc(-c3ccncc3)nc3ccc(S(=O)(=O)N4CCOCC4)cc23)cc1OC, which Potency is on record?
**A.** inconclusive: 3.16 µM [inhibitor, full curve, poor fit]

**Q.** For Cc1cc(-c2nc3ncccc3o2)ccc1NC(=O)c1ccc([N+](=O)[O-])o1, which “activity change, negative = inhibition” value is on record?
**A.** inactive: 0.161%

**Q.** For Cc1nc2nc(COc3ccccc3)[nH]n2c(=O)c1Cl, which “activity change, negative = inhibition” value is on record?
**A.** inactive: -0.951%

**Q.** With Cc1cccc(-c2cc(C(=O)Nc3c(C)n(C)n(-c4ccccc4)c3=O)c3ccccc3n2)c1 as the compound, how does the “activity change, negative = inhibition” value read?
**A.** inactive: -1.85%

**Q.** For COc1ccc(CC(=O)NCc2ccccc2)cc1, which Potency is on record?
**A.** inconclusive: 2.51 µM [inhibitor, full curve, poor fit]

**Q.** For OCc1nc2ccccc2n1CCCOc1ccccc1, which Potency is on record?
**A.** inconclusive: 7.94 µM [inhibitor, partial curve, poor fit]
